The source of these data is PubChem BioAssay AID493014 (National Center for Advancing Translational Sciences (NCATS), 2011).

Molecules are shown by their SMILES. The list shows a part of the results. Shown are side measurements of this screen, not its main read-out; they come without a call. Most of these compounds were active or inconclusive in the main read-out, so they are no random draw. Words in brackets tell the shape of the fitted curve; partial curves, single points and poor fits give uncertain potencies.

A short description of the assay: qHTS Assay to Find Inhibitors of Chronic Active B-Cell Receptor Signaling. Particulars: ABC-DLBCL IkBa-CBG/CBR reporter, luminescence ratio (green luciferase fused to IkBa over red control in TMD8 lymphoma cells), 4 h. A digest of the protocol:
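Cell line TMD8 (human ABC DLBCL), stably expressing tet-inducible CBG68-IkBa fusion and CBR; IMDM/0.5% FBS; cpd up to 46 uM; dox induction, 4 h, 37C/5% CO2; dual luminescence; green/red ratio; MG132 control.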

Where [1] appears, read: measured here: CBR red luminescence, cell number.
Where [2] appears, read: measured here: IkBa-CBG green luminescence.

In the case of `O=C(O)c1cccc(NS(=O)(=O)c2ccc3nnn(O)c3c2)c1`, the AC50 under setting [1] is 2.91 µM [rising, single point].

Take `COc1ccc(NC(=O)Cn2c(-c3ccc(OC)cc3)cn(-c3ccc(C)cc3)c2=O)cc1`: the half-maximal activity concentration (AC50) under setting [1] was 29.1 µM [rising, single point].

As to `CN(C(=O)c1c[nH]c(=O)cc1C(F)(F)F)c1ccc(Cl)cc1`, the concentration at half-maximal activity (AC50) under setting [1] was 2.51 µM [rising, full curve, poor fit]. Still for that read-out and setting: under `Cc1cccc(NC(=O)C2CCN(c3ncnc4c3nc3n4CCCCC3)CC2)n1` stands 10 µM [falling, partial curve]. `CC(C)NC(=O)c1onc(CSc2cccc(Cl)c2)c1C(=O)O`: the half-maximal activity concentration (AC50) under setting [1] was 35.5 µM [falling, single point]. Consider `O=C(COC(=O)C12CC3CC(CC(C3)C1)C2)Nc1ncc(Cl)cc1Cl`, for which the AC50 under setting [1] was 29.1 µM [rising, single point]. In the case of `O=C(Cc1c[nH]c2ccccc12)OCCOC(=O)Cc1c[nH]c2ccccc12`, under setting [1], the half-maximal activity concentration (AC50) is 18.4 µM [falling, single point]. For `COc1ccc2cc(C(C)c3nc4ccccc4c(=O)n3N)ccc2c1` (stereo not given), the AC50 under setting [1] was 29.1 µM [falling, single point]. For the compound `NC(=O)CC1(CC(=O)O)CCCCC1`, under setting [1], the half-maximal activity concentration (AC50) is 0.58 µM [rising, full curve]. Turning to `O=C(CCCC(=O)c1ccc(F)cc1)c1ccc(F)cc1`, the AC50 under setting [1] is 14.1 µM [rising, single point]. Still for that read-out and setting: under `COc1cccc(NC(=O)COc2ccc3c(c2)CCC3)c1` stands 10 µM [falling, partial curve, poor fit]; under `Cc1cc(C(=O)COC(=O)c2ccc(O)cc2O)c(C)n1C(C)C`, 29.1 µM [falling, single point]. The same measure, in the same setting: in the case of `C[C@H]1NC(=O)[C@@]2(C)[C@@H](c3ccccc3)[C@H]3COc4ccccc4[C@H]3N2C1=O` it was 29.1 µM [falling, single point]. Take `COCCCNC(=O)C[C@H]1C[C@H](C(=O)N2CCCCC2)[C@@]2(CCc3ccccc3)c3[nH]c4cc(-c5ccco5)ccc4c3CCN2C1=O`: under setting [1], the AC50 is 23.1 µM [falling, single point]. On the same count and under the same terms, in the case of `COc1ccc(/C=N/N=C2/C(=O)Nc3ccccc32)cc1O` it was 15.8 µM [falling, partial curve]; in that of `COc1ccc(C(=O)NCCS(=O)(=O)N(C)C2CCCCC2)cc1`, 9.2 µM [rising, partial curve, poor fit].

Consider `CC(=O)c1cccc(NC(=O)C(=O)Nc2cccc3ccccc23)c1`, for which the AC50 under setting [1] is 6.31 µM [falling, partial curve, poor fit].

As for `COC(=O)c1cc(NC(=O)CSc2ncn[nH]2)ccc1Cl`, under setting [1], the concentration at half-maximal activity (AC50) is 6.31 µM [falling, full curve].

As for `CC(C)OCCCNC(=O)c1ccc(NC(=O)C2=CSCCO2)cc1`, the AC50 under setting [1] is 0.112 µM [rising, full curve, poor fit].

With `COc1ccc(-c2nc(CS(=O)CC(=O)NCc3cccnc3)c(C)o2)cc1OC` (stereo not given), under setting [1], the concentration at half-maximal activity (AC50) was 3.66 µM [rising, partial curve, poor fit]. In the case of `COc1cc(OC)cc(C(=O)NC(=S)N2CCN(c3ccc(C(F)(F)F)cc3[N+](=O)[O-])CC2)c1`, the AC50 under setting [1] is 0.158 µM [falling, full curve, poor fit].

Take `CCOC(=O)c1ccc(NC(=S)Nc2cccc(N)n2)cc1`: the half-maximal activity concentration (AC50) under setting [1] is 35.5 µM [falling, single point].

On to `CCCCC1=C(C(=O)OCC)C(C(=O)OCC)Oc2ccccc21` (stereo not given), for which, under setting [1], the AC50 was 18.4 µM [rising, partial curve, poor fit]. Consider `Cc1ccc(CN(CC(=O)NCc2ccccn2)S(=O)(=O)c2ccccc2)cc1`, for which the AC50 under setting [1] was 35.5 µM [falling, partial curve, poor fit]. On to `O=C(CCCN1C(=O)/C(=C/c2ccccc2Cl)SC1=S)Nc1cccnc1`, for which the AC50 under setting [1] is 2.82 µM [falling, full curve]. As for `NC(=O)c1ccc(-n2nnnc2Oc2ccccc2)cc1`, the concentration at half-maximal activity (AC50) runs as follows: under setting [1], 23.1 µM [falling, single point]; under setting [2], 29.1 µM [rising, partial curve, poor fit]. For the compound `Cc1ccc(CNC(=O)CCNS(=O)(=O)c2ccc(C)cc2)cc1`, under setting [1], the AC50 was 20.6 µM [rising, single point]. Turning to `COc1cccc([C@@H]2Oc3ccc(OC)cc3C(=O)[C@H]2OC(=O)Nc2cc(OC)c(OC)c(OC)c2)c1`, the AC50 under setting [1] is 2.59 µM [rising, full curve, poor fit]. For `Clc1ccc(C2=Nn3c(nnc3-c3n[nH]c4c3CCC4)SC2)cc1`, the AC50 under setting [2] was 6.31 µM [falling, partial curve, poor fit]. Take `Cc1ccnc(NC(=O)C2CCN(S(=O)(=O)c3c(C)c(C)cc(C)c3C)CC2)c1`: the AC50 under setting [1] was 35.5 µM [falling, single point]. Consider `CCC(=O)N(C)CCc1cc2c(c(OC)c1/C=N/NC(=O)[C@H]1C[C@@H]1c1ccccc1)OCO2`, for which the AC50 under setting [1] was 22.4 µM [falling, single point]. For the compound `CC(OC(=O)/C=C/c1ccco1)C(=O)Nc1cccc([N+](=O)[O-])c1` (stereo not given), the AC50 under setting [1] was 29.1 µM [rising, single point]. Regarding `COc1cc2c(cc1OC)CN(C(=O)c1nn(Cc3ccccc3)c(=O)c3ccccc13)CC2`, the AC50 under setting [1] is 9.2 µM [falling, partial curve]. Consider `COc1cccc(CNC(=O)Cn2c(=O)n3nc(-c4cccc(C)c4)nc3c3ccccc32)c1`, for which, under setting [1], the AC50 was 12.6 µM [rising, partial curve, poor fit]. Same read-out and setting: in the case of `O=C(CCC(=O)OCC(=O)c1ccc(-c2ccccc2)cc1)Nc1cccc(Cl)c1` it was 17.8 µM [rising, single point]; in that of `CCC(C)(C)NC(=O)C(c1ccc(O)cc1)N(CCOC)C(=O)CCC(=O)Nc1nccs1` (stereo not given), 7.08 µM [rising, full curve, poor fit].

Consider `CC(=O)N1N=C(c2cccs2)CC1c1ccc(C)o1` (stereo not given), for which the AC50 under setting [1] was 20 µM [rising, partial curve, poor fit]. `CSc1ccc(-c2nnn(Cc3ccc(Br)cc3)n2)cc1`: under setting [1], the concentration at half-maximal activity (AC50) was 1.16 µM [rising, full curve, poor fit].

Turning to `CC(C)CCNC(=O)NC(=O)CSc1nnc(COc2ccccc2Cl)o1`, under setting [1], the AC50 is 3.66 µM [rising, single point].
